PubChem BioAssay AID1259308 – NCATS, 2017
The whole screen tested about 59,000 reagents; this is a random part of them. In the full data, about 1,510 (2.6%) were called active. 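Calls use total luciferase alone and ignore viability, so some active siRNAs may act by altering cell number.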 Reagents against one gene are numbered here. Further read-outs or replicates are left out here.

- Aim: 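Knock-downs that increase output of a recombinant reporter protein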 (primary screen)
- Cell system: human HEK293 embryonic kidney cells stably expressing firefly luciferase (HEK-CMV-Luc2-Hygro)
- Knock-down reagent: single siRNA against human genes, 0.8 pmol siRNA per well
- Timing: 72 h
- Measured: 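Reporter luminescence and viable-cell signal on separate replicate plates, given as percent of non-targeting control and median/MAD z-scores, plus per-cell luciferase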
- Direction: total luciferase, z-score: higher = more reporter protein produced
- Hit rule: 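An siRNA counts as active if its total luciferase robust z-score exceeds 3; genes with two or more such siRNAs out of three were retested with fresh siRNAs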
- Calls: active = raised luciferase; inactive = no rise

Against MECP2 (methyl-CpG binding protein 2) #1 the deposit lists total luciferase, z-score 0.713; inactive.
Against MECP2 (methyl-CpG binding protein 2) #2 the deposit lists total luciferase, z-score 1.07; inactive.
After knock-down of MECP2 (methyl-CpG binding protein 2) #3, the record shows total luciferase, z-score -0.194; inactive.
Knock-down of GPR52 (G protein-coupled receptor 52) #1 gave: total luciferase, z-score 0.529; inactive.
Knock-down of GPR52 (G protein-coupled receptor 52) #2 gave: total luciferase, z-score 1.35; inactive.
GPR52 (G protein-coupled receptor 52) #3 scored total luciferase, z-score -0.185; inactive.
After knock-down of RECQL5 (RecQ like helicase 5) #1, the record shows total luciferase, z-score -0.202; inactive.
RECQL5 (RecQ like helicase 5) #2 showed total luciferase, z-score 0.46; inactive.
Depletion of RECQL5 (RecQ like helicase 5) #3 resulted in: total luciferase, z-score -1.92; inactive.
ANKLE1 (ankyrin repeat and LEM domain containing 1) #1 showed total luciferase, z-score -1.31; inactive.
Knock-down of ANKLE1 (ankyrin repeat and LEM domain containing 1) #2 came out at: total luciferase, z-score -0.422; inactive.
After knock-down of ANKLE1 (ankyrin repeat and LEM domain containing 1) #3 the results were total luciferase, z-score -1.67; inactive.
ZNF346 (zinc finger protein 346) #1 scored total luciferase, z-score 1.33; inactive.
Silencing of ZNF346 (zinc finger protein 346) #2 resulted in: total luciferase, z-score 1.24; inactive.
ZNF346 (zinc finger protein 346) #3 gave total luciferase, z-score -1.62; inactive.
Against NRN1 (neuritin 1) #1, the entry reads total luciferase, z-score 3.78; active.
NRN1 (neuritin 1) #2 gave total luciferase, z-score 1.5; inactive.
Against NRN1 (neuritin 1) #3, the values are total luciferase, z-score 2.07; inactive.

Targets above whose target name starts with A or a (3):
ANKLE1 (ankyrin repeat and LEM domain containing 1) #1: total luciferase, z-score = -1.31; activity call = inactive
ANKLE1 (ankyrin repeat and LEM domain containing 1) #2: total luciferase, z-score = -0.422; activity call = inactive
ANKLE1 (ankyrin repeat and LEM domain containing 1) #3: total luciferase, z-score = -1.67; activity call = inactive

The listing continues:
With knock-down of CRYGC (crystallin gamma C) #1, the record shows total luciferase, z-score 2.31; inactive.
CRYGC (crystallin gamma C) #2 showed total luciferase, z-score 1.05; inactive.
Knock-down of CRYGC (crystallin gamma C) #3 resulted in: total luciferase, z-score -0.731; inactive.
After knock-down of FCAMR (Fc alpha and mu receptor) #1, the screen gave total luciferase, z-score 1.43; inactive.
For FCAMR (Fc alpha and mu receptor) #2 the deposit lists total luciferase, z-score 2.07; inactive.
FCAMR (Fc alpha and mu receptor) #3 showed total luciferase, z-score -0.237; inactive.
Depletion of FKBPL (FKBP prolyl isomerase like) #1 resulted in: total luciferase, z-score -1.44; inactive.
With knock-down of FKBPL (FKBP prolyl isomerase like) #2, the screen gave total luciferase, z-score 0.259; inactive.
After knock-down of FKBPL (FKBP prolyl isomerase like) #3 the results were total luciferase, z-score 0.825; inactive.
TRIM9 (tripartite motif containing 9) #1 scored total luciferase, z-score -0.109; inactive.
TRIM9 (tripartite motif containing 9) #2 gave total luciferase, z-score -0.85; inactive.
TRIM9 (tripartite motif containing 9) #3 showed total luciferase, z-score 0.234; inactive.
With knock-down of CBLB (Cbl proto-oncogene B) #1, the screen gave total luciferase, z-score 0.347; inactive.
CBLB (Cbl proto-oncogene B) #2 showed total luciferase, z-score 2.01; inactive.
Silencing of CBLB (Cbl proto-oncogene B) #3 came out at: total luciferase, z-score -0.19; inactive.
